# Data taken from PubChem BioAssay AID504834 (National Center for Advancing Translational Sciences (NCATS), 2011).
# Out of some 320,000 compounds screened, about 22,000 (6.9%) were called active. This list was built around the results that the source calls inconclusive (neither active nor inactive); the mix of calls is not that of the screen. Calls come from the whole dose curve; as a rule, active = well fitted inhibition curve with a large enough effect; inconclusive = small, poorly fitted or top-dose-only effect, or another doubt; inactive = no such curve, though single readings can be large or run the other way. A potency beside an inconclusive call is a rough fit, not a confirmed value.
# Assay: Primary qHTS for delayed death inhibitors of the malarial parasite plastid, 96 hour incubation
# Settings: P. falciparum luciferase reporter growth; series mostly up to 28.7 µM; activity change, negative = inhibition: at the top concentration
# Procedure, shortened: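 96 h incubation, 37 C, 5% CO2, of luciferase-reporter P. falciparum-infected RBCs (2% hematocrit, 0.05% parasitemia final) with test compounds; endpoint luminescence.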
# % is set by controls: 0 for no effect and ±100 for the full control effect; potency is the fitted concentration of half-maximal effect.
SMILES,Potency,"activity change, negative = inhibition"
O=C(CN1CCN(c2ccccc2O)CC1)Nc1cccnc1Cl,"inconclusive: 18.5 µM [inhibitor, single point]",
COc1ccc(Cl)cc1C(=O)O/N=C(\N)c1ccccn1,"inconclusive: 18.5 µM [inhibitor, partial curve, poor fit]",
O=C(CSc1nnc(NC(=O)C2CC2)s1)NCc1cccs1,"inconclusive: 2.62 µM [inhibitor, full curve, poor fit]",
CCc1cc(=O)oc2cc(C)cc(OC(C)C(=O)NCc3cccnc3)c12 (configuration not stated),"inconclusive: 3.7 µM [inhibitor, full curve]",
Cc1nnc(SCC(=O)Nc2ncc(S(=O)(=O)c3ccc([N+](=O)[O-])cc3)s2)s1,,inactive: 32.1%
O=C(Nc1cccc(F)c1)c1ccc(Br)o1,,inactive: 57.3%
Cc1ccccc1Nc1nc(N)nc(COC(=O)c2cccc(S(=O)(=O)NCc3ccccc3)c2)n1,active: 13.1 µM,
C/C(=N\NC(=O)COc1cc(C)cc(C)c1)c1ccc(N2CCOCC2)cc1,"inconclusive: 9.28 µM [inhibitor, single point]",
C#CCNC(=O)C1CCN(c2ccc(S(=O)(=O)N3CCOCC3)cc2Cl)CC1,"inconclusive: 16.5 µM [inhibitor, partial curve, poor fit]",
CCOC(=O)N1CCN(C(=O)c2c[nH]c3ccc(S(=O)(=O)N(C)c4cccc(C)c4)cc3c2=O)CC1,,inactive: 2.67%
COc1ccccc1CN(C)C(=O)c1ccc2c(c1)NC(=O)CS2,"inconclusive: 9.28 µM [inhibitor, single point]",
Cc1cc(NCc2ccccc2)nc(-c2ccccc2O)n1,,inactive: 49.5%
CN(C)S(=O)(=O)c1ccc(N2CCCC2=O)c([N+](=O)[O-])c1,"inconclusive: 1.04 µM [inhibitor, partial curve, poor fit]",
CC1(C)C(=O)OC(c2cccs2)C2(CCCCC2)C1=O (configuration not stated),"inconclusive: 18.5 µM [inhibitor, partial curve, poor fit]",
Cc1cc(C)c(C(=O)c2ccc(C(=O)N(C(C)C)C(C)C)cc2)c(C)c1,"inconclusive: 13.1 µM [inhibitor, partial curve]",
O=C(OCC(=O)N1CCCc2ccccc21)c1cccc(S(=O)(=O)N2CCc3ccccc32)c1,,inactive: 33.8%
Cc1cc2cc(CNS(=O)(=O)c3ccc4ccccc4c3)ccc2n1C,"inconclusive: 20.8 µM [inhibitor, partial curve, poor fit]",
O=c1[nH]c(CN2CCN(S(=O)(=O)/C=C/c3ccccc3)CC2)nc2ccccc12,"inconclusive: 11.7 µM [inhibitor, partial curve]",
Brc1cc(Br)c(Oc2cc(Br)c(Br)cc2Br)cc1Br,"inconclusive: 16.5 µM [inhibitor, single point]",
Cc1oc(-c2ccc(Cl)cc2)nc1CS(=O)CC(=O)NCc1ccco1 (configuration not stated),"inconclusive: 11.7 µM [inhibitor, single point]",
CN1C(=O)Cc2cc(S(=O)(=O)N3CCOCC3)ccc21,active: 4.65 µM,
NC(=S)Nc1cccc2cc3ccccc3cc12,,inactive: 45.7%
FC(F)(F)c1cccc(NC2=NCCCS2)c1,"inconclusive: 18.5 µM [inhibitor, single point]",
CC(=O)N(C)c1ccc(NC(=O)Nc2ccc(C)cc2)cc1,,inactive: 44.7%

SMILES,Potency,"activity change, negative = inhibition"
CCOCC(=O)NC1CCSC1=O (configuration not stated),"inconclusive: 3.29 µM [inhibitor, partial curve, poor fit]",
C[C@@H](C(=O)NCCc1c[nH]c2ccccc12)[C@H]1C[C@]1(C)[C@H](NC(=O)OCc1ccccc1)c1ccccc1,active: 9.28 µM,
CCN1CCN(c2ccc(S(=O)(=O)N3CCCCC3)cc2NC(=O)c2ccc([N+](=O)[O-])s2)CC1,active: 1.65 µM,
CCOc1ccc(NC(=O)Cn2nnc3c(cnn3-c3ccc(F)cc3)c2=O)cc1,"inconclusive: 2.33 µM [inhibitor, partial curve, poor fit]",
CC(NC(=O)CSc1nnc(-c2cccnc2)n1N)c1ccccc1 (configuration not stated),"inconclusive: 0.928 µM [inhibitor, partial curve, poor fit]",
Cc1ccc2c(CC(=O)OC(C)C(=O)NCc3ccc4c(c3)OCO4)coc2c1 (configuration not stated),,inactive: 0%
CCCCc1ccc(C2C3=C(CC(C)(C)CC3=O)NC3=C2C(=O)c2ccccc23)cc1 (configuration not stated),"inconclusive: 4.15 µM [inhibitor, single point]",
CCOc1ccc(CCNC(=O)C2CCC(=O)N2CCc2ccccc2)cc1OCC (configuration not stated),active: 13.1 µM,
O=C(c1ccc([N+](=O)[O-])cc1)N1CCC(n2nnc3cc(F)ccc32)CC1,,inactive: -16.6%
CCOc1ccccc1-c1cc(C(=O)N/N=C(\C)c2cccnc2)c2ccccc2n1,,inactive: 2.86%
CC1(C)CC2CC(C)(CN2S(=O)(=O)c2cccc(C(=O)OCC(=O)NC(N)=O)c2)C1 (configuration not stated),,inactive: -21.6%
CC(C)c1ccc(NS(=O)(=O)c2ccc3c(c2)NC(=O)CO3)cc1,"inconclusive: 16.5 µM [inhibitor, single point]",
O=C(NCC(c1ccco1)N1CCN(c2ccc(F)cc2)CC1)C(=O)NC1CCCC1 (configuration not stated),"inconclusive: 10.4 µM [inhibitor, single point]",
CC(=O)NC1=NN(C(C)=O)C2(S1)C(=O)N(C(C)=O)c1ccc(C)cc12 (configuration not stated),,inactive: 6.94%
COc1cc2c3c(c1)c(N=NC(N)=S)c(O)n3C(C)(C)C=C2C,active: 6.57 µM,
CCN(CC)CCn1c(=S)[nH]c2ccc(Cl)cc2c1=O,,inactive: -0.941%
O=C(C[n+]1cccc2ccccc21)c1ccc(Cl)cc1,,inactive: 18.2%
Cc1cccc(N2CCN(C(=O)c3noc4c3COc3ccc(C)cc3-4)CC2C)c1 (configuration not stated),"inconclusive: 6.57 µM [inhibitor, partial curve]",
CCNC(=O)/C(C#N)=C/c1c(N2CCN(c3ccccc3)CC2)nc2ccccn2c1=O,,inactive: -16.7%
CCOC(=O)c1c(C)[nH]c(C)c1C(=O)COC(=O)c1cc(OC)cc(OC)c1,"inconclusive: 8.28 µM [inhibitor, partial curve]",
CCN=c1scc(-c2ccco2)n1/N=C/c1ccc(OC)c(O)c1,,inactive: 119%
CN(C)CCCNC(=S)Nc1ccc(Oc2ccccc2)cc1,"inconclusive: 18.5 µM [inhibitor, single point]",
CCOC(=O)C1=C(C)N(C)C(C)=C(C(=O)OCC)C1c1cccnc1,"inconclusive: 9.28 µM [inhibitor, partial curve]",
O=C(NCCCn1ccnc1)c1ccccc1Br,"inconclusive: 16.5 µM [inhibitor, single point]",

# Exported bar-delimited: three of the compounds above.
SMILES | Potency | activity change, negative = inhibition
CCOc1ccc(NC(=O)Cn2nnc3c(cnn3-c3ccc(F)cc3)c2=O)cc1 | inconclusive: 2.33 µM [inhibitor, partial curve, poor fit] | 
CC(NC(=O)CSc1nnc(-c2cccnc2)n1N)c1ccccc1 (configuration not stated) | inconclusive: 0.928 µM [inhibitor, partial curve, poor fit] | 
Cc1ccc2c(CC(=O)OC(C)C(=O)NCc3ccc4c(c3)OCO4)coc2c1 (configuration not stated) |  | inactive: 0%

# Following part:

SMILES,Potency,"activity change, negative = inhibition"
COc1ccc(-c2sc(Nc3ccc(F)c(F)c3F)nc2CCC(=O)NN)cc1,"inconclusive: 18.5 µM [inhibitor, single point]",
Cc1nnc(SCc2cc(=O)[nH]c(Nc3nc(C)c4cc(C)c(C)cc4n3)n2)s1,"inconclusive: 0.329 µM [inhibitor, full curve, poor fit]",
COc1ccccc1CNc1ccc(N2CCOCC2)c(C(=O)O)c1,active: 13.1 µM,
Cc1csc(=O)n1CC(=O)OC(C)C(=O)Nc1cccc(Cl)c1 (configuration not stated),,inactive: 27.3%
Cc1nc(CN(C)C(=O)c2cc(COc3c(F)cccc3F)on2)cs1,,inactive: 32.5%
COc1cc2c(cc1OC)C(c1ccccc1)CC2=O (configuration not stated),,inactive: 1.93%
Cc1c(C(=O)N2CCOCC2)sc2ncn(CC(=O)N3CCC(C)CC3)c(=O)c12,"inconclusive: 0.037 µM [inhibitor, full curve, poor fit]",
CCc1ccc(NC(=O)c2sc3nc4n(c(=O)c3c2C)CCC4)cc1,"inconclusive: 18.5 µM [inhibitor, single point]",
CCCCc1nnc(NC(=O)c2oc3ccccc3c2C)s1,,inactive: 65.8%
CC(=O)Nc1ccc(Nc2c([N+](=O)[O-])c(=O)n(-c3ccccc3)c3ccccc23)cc1,,inactive: 18.2%
CCOC(=O)C1=C(C)OC(N)=C(C#N)C1c1ccc(O)c(OC)c1 (configuration not stated),"inconclusive: 10.4 µM [inhibitor, partial curve, poor fit]",
CC(=O)n1cc([C@@H]2C=C(C(=O)O)O[C@H](OCc3ccc(CO)cc3)C2)c2ccccc21,,inactive: 22.1%
CCOC(=O)c1[nH]ncc1CN1CCCC(C(=O)c2ccc(OC)cc2C)C1 (configuration not stated),active: 8.28 µM,
CCOC(=O)c1c(C)c(C(=O)NCC2CCCO2)c(C)n1C (configuration not stated),"inconclusive: 0.0738 µM [inhibitor, full curve, poor fit]",
CCOC(=O)C1=C(c2ccccc2)NC(=O)N(C(C)=O)C1c1cccc([N+](=O)[O-])c1 (configuration not stated),"inconclusive: 10.4 µM [inhibitor, single point]",
Cc1cc(SCC(=O)Nc2c(C)n(C)n(-c3ccccc3)c2=O)nc2ccccc12,"inconclusive: 16.5 µM [inhibitor, single point]",
Cc1nnc(SCC(=O)N(C2CCCCC2)C2CCS(=O)(=O)C2)n1C (configuration not stated),,inactive: 10.5%
O=C(O)CNC(=O)CCCn1nnc2ccccc2c1=O,,inactive: 67%
O=[N+]([O-])c1ccc(-c2nnc(-c3ccccc3)c(N3CCOCC3)n2)cc1,"inconclusive: 5.86 µM [inhibitor, partial curve, poor fit]",
CC1CCN(CCCNC(=O)C2CCC(CNS(=O)(=O)c3ccccc3)CC2)CC1 (configuration not stated),active: 11.7 µM,
CCOC(=O)CN1c2ccccc2NC(=O)CC1C (configuration not stated),,inactive: -16.1%
CCN1C(=O)C(CC(=O)Nc2ccc(C)cc2C)Nc2cc(S(=O)(=O)N(C)C)ccc21 (configuration not stated),"inconclusive: 11.7 µM [inhibitor, partial curve, poor fit]",
COc1cc(NC(=O)CSc2ccc(-c3ccccn3)nn2)cc(OC)c1,"inconclusive: 10.4 µM [inhibitor, single point]",
CCC(=O)N1CCN(c2ccccc2NC(=O)Cc2ccccc2)CC1,,inactive: -1.97%
